Some of the results follow.
Columns and labels:
Test in all cases: log2 fold change, soluble protein after heating vs DMSO (PISA); higher = thermal stabilisation; K562 lysate, 10 uM; active = over 0.2 and 3.5 SD of the protein, either way, in both replicates (recomputed)
erlotinib = compound: C#Cc1cccc(Nc2ncnc3cc(OCCOC)c(OCCOC)cc23)c1 [erlotinib]
Outline: (§1)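 To prepare the extract, K562 pellets were dounce-homogenised in PBS pH 7.4 with 1 mM MgCl2, giving crude material at 1 mg/mL protein. This was treated with 10 μM compound for 30 min, then heated in aliquots for 3 min over 48°C-58°C before pooling and addition of NP-40 to 0.5% at 4°C. Centrifugation at 21,000xg for 90 min left soluble protein in the supernatant, which TMTpro 16plex LC-MS/MS quantified with equalised channel sums. Results are log-two fold changes in thermal stability compared with solvent controls, from duplicates.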

Amino acid sequences for entries named in this document (tags omitted). A change or cut given only in a name is not applied to a line headed by its entry.
UniProt P16401, whole entry, looked up: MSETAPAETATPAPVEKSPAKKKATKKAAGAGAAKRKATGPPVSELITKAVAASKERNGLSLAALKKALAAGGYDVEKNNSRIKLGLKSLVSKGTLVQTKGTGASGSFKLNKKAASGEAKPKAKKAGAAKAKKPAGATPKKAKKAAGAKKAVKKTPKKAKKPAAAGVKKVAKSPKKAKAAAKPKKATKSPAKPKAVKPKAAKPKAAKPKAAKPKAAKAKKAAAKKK
UniProt Q13888: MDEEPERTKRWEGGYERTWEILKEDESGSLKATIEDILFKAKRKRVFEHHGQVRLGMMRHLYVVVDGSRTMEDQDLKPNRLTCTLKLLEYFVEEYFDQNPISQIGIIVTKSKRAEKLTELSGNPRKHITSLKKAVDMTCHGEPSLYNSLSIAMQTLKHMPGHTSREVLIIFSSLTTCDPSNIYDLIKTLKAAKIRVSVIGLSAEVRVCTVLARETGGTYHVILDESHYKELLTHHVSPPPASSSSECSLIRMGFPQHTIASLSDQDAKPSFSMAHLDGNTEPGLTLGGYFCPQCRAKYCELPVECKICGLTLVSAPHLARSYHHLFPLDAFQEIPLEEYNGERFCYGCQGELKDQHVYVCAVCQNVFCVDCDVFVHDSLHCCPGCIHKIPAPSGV
UniProt P40939: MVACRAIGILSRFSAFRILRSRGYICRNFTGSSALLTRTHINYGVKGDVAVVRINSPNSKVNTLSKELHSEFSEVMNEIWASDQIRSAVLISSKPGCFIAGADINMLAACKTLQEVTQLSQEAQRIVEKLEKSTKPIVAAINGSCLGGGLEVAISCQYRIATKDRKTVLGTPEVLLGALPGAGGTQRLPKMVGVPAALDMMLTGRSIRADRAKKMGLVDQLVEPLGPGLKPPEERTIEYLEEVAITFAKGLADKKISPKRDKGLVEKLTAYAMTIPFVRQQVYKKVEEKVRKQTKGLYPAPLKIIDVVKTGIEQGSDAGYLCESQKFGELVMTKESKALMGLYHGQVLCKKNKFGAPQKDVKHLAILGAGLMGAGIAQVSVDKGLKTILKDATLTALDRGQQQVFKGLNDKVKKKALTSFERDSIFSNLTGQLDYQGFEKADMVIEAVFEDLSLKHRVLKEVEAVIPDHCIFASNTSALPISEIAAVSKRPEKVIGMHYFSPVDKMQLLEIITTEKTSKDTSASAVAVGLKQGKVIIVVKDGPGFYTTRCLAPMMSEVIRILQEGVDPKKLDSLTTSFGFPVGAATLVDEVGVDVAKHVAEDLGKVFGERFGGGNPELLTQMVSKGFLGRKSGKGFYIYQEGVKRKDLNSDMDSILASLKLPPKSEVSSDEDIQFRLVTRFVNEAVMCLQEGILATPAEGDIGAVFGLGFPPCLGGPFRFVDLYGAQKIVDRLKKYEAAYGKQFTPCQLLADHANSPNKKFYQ
UniProt Q8WW33: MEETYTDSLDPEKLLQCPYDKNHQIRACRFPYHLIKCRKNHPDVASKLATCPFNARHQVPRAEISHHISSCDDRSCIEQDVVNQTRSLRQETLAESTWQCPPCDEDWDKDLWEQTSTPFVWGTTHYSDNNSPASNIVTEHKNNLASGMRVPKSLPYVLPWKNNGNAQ
UniProt Q6PII5: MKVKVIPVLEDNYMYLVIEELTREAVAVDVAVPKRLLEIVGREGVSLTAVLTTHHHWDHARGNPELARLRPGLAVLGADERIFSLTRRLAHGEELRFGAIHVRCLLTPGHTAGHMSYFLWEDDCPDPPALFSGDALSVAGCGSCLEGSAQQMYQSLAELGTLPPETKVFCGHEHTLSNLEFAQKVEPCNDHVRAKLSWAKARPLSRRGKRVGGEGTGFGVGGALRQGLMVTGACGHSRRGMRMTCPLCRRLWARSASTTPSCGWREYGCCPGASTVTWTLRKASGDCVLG
UniProt O15488: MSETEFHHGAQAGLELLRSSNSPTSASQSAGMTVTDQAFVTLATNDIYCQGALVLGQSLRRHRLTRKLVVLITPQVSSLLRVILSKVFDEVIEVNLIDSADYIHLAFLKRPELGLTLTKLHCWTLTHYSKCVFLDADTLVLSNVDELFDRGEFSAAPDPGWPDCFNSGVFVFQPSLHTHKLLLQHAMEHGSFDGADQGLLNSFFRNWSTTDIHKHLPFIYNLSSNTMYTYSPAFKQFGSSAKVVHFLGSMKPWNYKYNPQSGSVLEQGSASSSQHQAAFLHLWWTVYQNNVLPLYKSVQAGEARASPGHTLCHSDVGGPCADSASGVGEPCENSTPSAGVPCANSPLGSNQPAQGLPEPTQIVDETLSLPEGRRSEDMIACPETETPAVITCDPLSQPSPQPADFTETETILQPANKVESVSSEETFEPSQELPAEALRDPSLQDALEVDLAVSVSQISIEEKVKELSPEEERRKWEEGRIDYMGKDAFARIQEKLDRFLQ

[1] = compound: C/C(=N\NC(=O)C1=CC(=CC=C1)S(=O)(=O)N2CCOCC2)/C3=C(C=CC(=C3)Cl)O
Outline: as §1

[2] = compound: C1=CC(=CC=C1C2=NC3=C(N2)C=C(C=C3)C(=O)N)OC4=CC=C(C=C4)Cl
Outline: as §1

[3] = compound: C1=CC2=C(C=CC(=C2)/C=C\3/C(=O)NC(=NCC4=CC=CS4)S3)N=C1
Outline: as §1

[4] = compound: C1=CC2=NC=CN=C2C=C1/C=C/3\C(=O)NC(=O)S3
Outline: as §1

[5] = compound: C1=CC=C(C=C1)C2=NC(=C(N2)C3=CC=NC=C3)C4=CC(=C(C=C4)Cl)O
Outline: as §1

[6] = compound: C1=CC=C2C(=C1)C3=NNC4=CC=CC(=C43)C2=O
Outline: as §1

[7] = compound: C1CCN(C1)C(=O)NC2=CC=CC(=C2)NC3=NC=C(C(=N3)NCCC4=CN=CN4)Br
Outline: as §1

[8] = compound: C1CN(CCC1(CC2=CC=C(C=C2)Cl)N)C3=NC=NC4=C3C=CN4
Outline: as §1

IRAK-1-4 Inhibitor I = compound: C1COCCN1CCN2C3=CC=CC=C3N=C2NC(=O)C4=CC(=CC=C4)[N+](=O)[O-] [IRAK-1-4 Inhibitor I]
Outline: as §1

ibrutinib = compound: C=CC(=O)N1CCC[C@@H](n2nc(-c3ccc(Oc4ccccc4)cc3)c3c(N)ncnc32)C1 [ibrutinib]
Outline: as §1

[9] = compound: CC(=O)c1cnc2ccc(-c3cc(Cl)c(O)c(Cl)c3)nc2c1N[C@H]1CC[C@H](CN(C)C)CC1
Outline: as §1

ralimetinib = compound: CC(C)(C)Cn1c(N)nc2ccc(-c3[nH]c(C(C)(C)C)nc3-c3ccc(F)cc3)nc21 [ralimetinib]
Outline: as §1

[10] = compound: CC(C)(O)CC(=O)NCCn1ccc2ncnc(Nc3ccc(Oc4cccc(C(F)(F)F)c4)c(Cl)c3)c21
Outline: as §1

[11] = compound: CC(C)C1=C2N=C(C=C(N2N=C1)NCC3=CC=CC=C3)NCCCCCCN
Outline: as §1

[12] = compound: CC1=C(C(CC(=O)N1)C2=CC=C(C=C2)C(F)(F)F)C(=O)NC3=C(C=C4C(=C3)C=NN4)F
Outline: as §1

[13] = compound: CC1=C(C2=C(C=C1)C(=O)C3=CC=CC=C3N2CCCN)C
Outline: as §1

[14] = compound: CC1=C(C=C(C=C1)NC(=O)C2=CC(=CC=C2)C(C)(C)C#N)NC3=CC4=C(C=C3)N=CN(C4=O)C
Outline: as §1

[15] = compound: CC1=C(C=C(C=C1)NC(=O)C2=CC(=CC=C2)N(C)C)NC(=O)C3=CC=C(C=C3)O
Outline: as §1

[16] = compound: CC1=CC=C(C=C1)SC2=C3C=C(SC3=CN=C2)C(=O)N
Outline: as §1

Measured: log2 fold change

H1-5 (UniProt P16401)
inactive: erlotinib -0.007 | [1] 0.001 | [2] -0.004 | [3] -0.021 | [4] -0.014 | [5] 0.026 | [6] 0.037 | [7] -0.001 | [8] -0.026 | IRAK-1-4 Inhibitor I 0.004 | ibrutinib -0.013 | [9] -0.009 | ralimetinib -0.067 | [10] -0.024 | [11] 0.011 | [12] -0.018 | [13] 0.167 | [14] 0.001 | [15] -0.021 | [16] -0.005

GTF2H2 (UniProt Q13888)
inactive: erlotinib 0.09 | [1] 0.049 | [2] 0.013 | [3] -0.009 | [4] -0.007 | [5] 0.087 | [6] 0.008 | [7] 0.015 | [8] 0.037 | IRAK-1-4 Inhibitor I 0.028 | ibrutinib 0.007 | [9] 0.028 | ralimetinib -0.003 | [10] -0.042 | [11] 0.031 | [12] -0.021 | [13] -0.009 | [14] 0.045 | [15] 0.007 | [16] -0.014

HADHA (UniProt P40939)
active: [2] 0.387
inactive: erlotinib -0.08 | [1] 0.042 | [3] 0.014 | [4] -0.087 | [5] -0.003 | [6] 0.026 | [7] -0.067 | [8] 0.04 | IRAK-1-4 Inhibitor I 0.031 | ibrutinib 0.078 | [9] -0.057 | ralimetinib 0.012 | [10] 0.05 | [11] -0.042 | [12] -0.031 | [13] -0.01 | [14] 0.055 | [15] -0.033 | [16] 0.077

GTSF1 (UniProt Q8WW33)
inactive: erlotinib -0.01 | [1] -0.018 | [2] 0.042 | [3] 0.009 | [4] -0.03 | [5] 0.016 | [6] 0.011 | [7] -0.015 | [8] 0.009 | IRAK-1-4 Inhibitor I 0.04 | ibrutinib 0.038 | [9] 0.021 | ralimetinib -0.008 | [10] 0.044 | [11] -0.025 | [12] -0.002 | [13] 0.005 | [14] 0.065 | [15] -0.043 | [16] -0.023

HAGHL isoform 2 (UniProt Q6PII5)
inactive: erlotinib -0.006 | [1] -0.043 | [2] 0.026 | [3] 0.085 | [4] -0.097 | [5] 0.037 | [6] 0.034 | [7] -0.039 | [8] 0.05 | IRAK-1-4 Inhibitor I -0.055 | ibrutinib 0.118 | [9] 0.014 | ralimetinib 0.032 | [10] -0.059 | [11] -0.053 | [12] -0.081 | [13] -0.035 | [14] -0.069 | [15] 0.003 | [16] -0.013

GYG2 (UniProt O15488)
inactive: erlotinib 0.014 | [1] -0.052 | [2] 0.025 | [3] -0.007 | [4] 0.016 | [5] -0.012 | [6] 0.133 | [7] -0.071 | [8] -0.017 | IRAK-1-4 Inhibitor I 0.011 | ibrutinib -0.051 | [9] 0.003 | ralimetinib -0.012 | [10] -0.038 | [11] -0.024 | [13] -0.062 | [15] -0.052 | [16] -0.01

Two neighbouring entries from above, for reference:
H1-5 (UniProt P16401)
inactive: erlotinib -0.007 | [1] 0.001 | [2] -0.004 | [3] -0.021 | [4] -0.014 | [5] 0.026 | [6] 0.037 | [7] -0.001 | [8] -0.026 | IRAK-1-4 Inhibitor I 0.004 | ibrutinib -0.013 | [9] -0.009 | ralimetinib -0.067 | [10] -0.024 | [11] 0.011 | [12] -0.018 | [13] 0.167 | [14] 0.001 | [15] -0.021 | [16] -0.005

GTF2H2 (UniProt Q13888)
inactive: erlotinib 0.09 | [1] 0.049 | [2] 0.013 | [3] -0.009 | [4] -0.007 | [5] 0.087 | [6] 0.008 | [7] 0.015 | [8] 0.037 | IRAK-1-4 Inhibitor I 0.028 | ibrutinib 0.007 | [9] 0.028 | ralimetinib -0.003 | [10] -0.042 | [11] 0.031 | [12] -0.021 | [13] -0.009 | [14] 0.045 | [15] 0.007 | [16] -0.014
